In PMC9482638:
Results are given in words; binding and its absence hold for the method and conditions named. In cells and extracts the contact can be indirect. Some entries that bind do so weakly or less than the wild type.

Sequences of proteins named here, by UniProt entry; tags and fusion partners are left off. A change or cut given only in a name is not applied to a line headed by its entry. A line that says so, or that is headed by a name, gives the form on record, which may keep a tag or linker.
mNeonGreen-tagged NRAS^Q61L (P01111, form named): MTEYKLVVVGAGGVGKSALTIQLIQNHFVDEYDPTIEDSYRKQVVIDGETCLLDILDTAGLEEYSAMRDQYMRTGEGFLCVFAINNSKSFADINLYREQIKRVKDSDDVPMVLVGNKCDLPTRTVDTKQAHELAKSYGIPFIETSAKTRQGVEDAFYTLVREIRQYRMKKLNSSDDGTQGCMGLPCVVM
mNeonGreen-tagged NRAS^G12D (P01111, form named): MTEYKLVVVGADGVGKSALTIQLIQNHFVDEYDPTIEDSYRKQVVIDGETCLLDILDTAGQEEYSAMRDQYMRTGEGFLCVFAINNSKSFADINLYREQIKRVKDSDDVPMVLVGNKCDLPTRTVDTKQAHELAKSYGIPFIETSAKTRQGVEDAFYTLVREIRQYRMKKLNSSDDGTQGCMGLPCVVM

Key:
[1] = biological target: mNeonGreen-tagged NRAS^Q61L (UniProt P01111); experiment: co-IP; mNeonGreen-tagged mutant RAS captured with mNeonGreen-Trap agarose from MM cell lysate in 0.5% CHAPS, 50 mM Tris pH 7.5, 150 mM NaCl, 2 h at 4 C; control beads in parallel; western blot
[2] = biological target: mNeonGreen-tagged NRAS^G12D (UniProt P01111); experiment: as above

Question: With “SLC3A2 (endogenous) (from UniProt P08195 1-529)” as the substance, how does the binding [1] read?
Answer: binds

Question: What about the binding [2] of the same substance?
Answer: binds
